Measured values reported in article PMC5111407.
These are yes or no findings as the source states them, for the method shown. Binding seen in cells or lysates may run through a third protein. These calls come from enrichment with a bait or labelling near it, and not all partners need be listed. Sequences can lack the tags named with a protein.

The chains behind the UniProt entries cited, without tags or fusion partners. Where a name states a change or a piece, a line headed by the entry shows the natural chain unless it says otherwise.
UniProt A0A1D8PIP3: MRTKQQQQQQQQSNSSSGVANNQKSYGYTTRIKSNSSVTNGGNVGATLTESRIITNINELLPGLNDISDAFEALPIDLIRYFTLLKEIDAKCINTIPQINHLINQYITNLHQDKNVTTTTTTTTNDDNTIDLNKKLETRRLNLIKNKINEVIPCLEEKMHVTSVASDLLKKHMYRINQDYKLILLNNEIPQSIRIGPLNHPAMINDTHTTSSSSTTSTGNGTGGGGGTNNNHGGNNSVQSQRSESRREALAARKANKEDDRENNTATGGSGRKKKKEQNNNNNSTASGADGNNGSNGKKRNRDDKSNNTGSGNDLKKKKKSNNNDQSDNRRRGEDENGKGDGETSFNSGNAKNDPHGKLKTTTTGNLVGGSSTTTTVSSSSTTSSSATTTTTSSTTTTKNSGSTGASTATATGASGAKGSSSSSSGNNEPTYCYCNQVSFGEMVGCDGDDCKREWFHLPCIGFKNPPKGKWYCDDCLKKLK
UniProt A0A1D8PCC3: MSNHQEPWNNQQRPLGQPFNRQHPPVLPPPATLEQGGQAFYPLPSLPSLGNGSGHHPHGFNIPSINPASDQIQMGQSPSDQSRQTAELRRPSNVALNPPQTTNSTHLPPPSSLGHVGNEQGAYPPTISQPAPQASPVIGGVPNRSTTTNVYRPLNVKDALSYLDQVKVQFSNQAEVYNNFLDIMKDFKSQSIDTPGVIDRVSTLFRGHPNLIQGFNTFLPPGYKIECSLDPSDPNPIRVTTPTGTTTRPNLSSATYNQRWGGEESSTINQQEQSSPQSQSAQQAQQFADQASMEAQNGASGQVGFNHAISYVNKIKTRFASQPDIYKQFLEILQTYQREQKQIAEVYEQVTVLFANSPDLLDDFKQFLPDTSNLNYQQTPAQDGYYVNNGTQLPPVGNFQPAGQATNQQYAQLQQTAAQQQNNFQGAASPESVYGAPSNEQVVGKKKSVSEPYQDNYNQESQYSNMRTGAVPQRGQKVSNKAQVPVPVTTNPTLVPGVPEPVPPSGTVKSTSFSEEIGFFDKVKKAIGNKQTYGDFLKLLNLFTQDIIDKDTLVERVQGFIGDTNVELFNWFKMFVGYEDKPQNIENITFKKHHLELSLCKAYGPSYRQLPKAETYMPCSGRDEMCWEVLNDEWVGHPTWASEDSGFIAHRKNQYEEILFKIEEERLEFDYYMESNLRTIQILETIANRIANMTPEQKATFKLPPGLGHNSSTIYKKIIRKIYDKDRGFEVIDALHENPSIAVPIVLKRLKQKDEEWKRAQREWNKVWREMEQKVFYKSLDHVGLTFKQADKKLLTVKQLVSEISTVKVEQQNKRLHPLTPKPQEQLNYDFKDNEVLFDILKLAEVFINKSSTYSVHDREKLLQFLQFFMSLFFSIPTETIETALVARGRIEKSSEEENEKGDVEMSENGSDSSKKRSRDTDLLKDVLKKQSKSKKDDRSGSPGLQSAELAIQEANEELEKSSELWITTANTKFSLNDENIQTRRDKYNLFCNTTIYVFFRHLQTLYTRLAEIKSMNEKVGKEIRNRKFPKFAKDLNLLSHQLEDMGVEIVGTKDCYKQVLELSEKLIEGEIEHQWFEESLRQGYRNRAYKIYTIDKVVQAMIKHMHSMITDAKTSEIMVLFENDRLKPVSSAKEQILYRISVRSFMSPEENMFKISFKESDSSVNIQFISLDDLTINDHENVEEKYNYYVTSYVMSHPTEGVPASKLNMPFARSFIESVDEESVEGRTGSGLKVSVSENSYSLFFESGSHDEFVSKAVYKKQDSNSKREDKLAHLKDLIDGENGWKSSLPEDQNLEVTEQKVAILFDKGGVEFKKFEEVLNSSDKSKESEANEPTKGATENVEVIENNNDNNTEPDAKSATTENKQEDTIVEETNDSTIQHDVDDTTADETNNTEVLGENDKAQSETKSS
UniProt A0A1D8PRH3: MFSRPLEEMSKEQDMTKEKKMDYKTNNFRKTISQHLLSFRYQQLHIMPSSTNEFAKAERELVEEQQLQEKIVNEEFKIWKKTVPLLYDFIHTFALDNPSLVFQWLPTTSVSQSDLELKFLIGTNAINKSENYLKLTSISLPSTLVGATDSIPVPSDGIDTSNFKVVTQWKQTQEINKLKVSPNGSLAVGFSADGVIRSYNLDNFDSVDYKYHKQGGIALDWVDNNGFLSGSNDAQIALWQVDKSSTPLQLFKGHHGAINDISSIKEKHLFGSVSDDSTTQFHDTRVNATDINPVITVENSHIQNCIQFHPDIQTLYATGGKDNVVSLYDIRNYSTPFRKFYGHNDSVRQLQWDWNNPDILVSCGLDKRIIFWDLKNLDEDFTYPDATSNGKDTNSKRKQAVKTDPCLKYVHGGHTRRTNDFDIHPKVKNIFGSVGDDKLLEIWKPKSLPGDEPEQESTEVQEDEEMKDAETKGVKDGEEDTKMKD

biological target: T1, Rpd31-9myc (Candida albicans) (UniProt Q5ADP0); assay: affinity purification with mass spectrometry; whole-cell extracts of 9myc-tagged C. albicans strains precipitated with anti-myc antibody (4A6) on protein G Dynabeads; lysis buffer 10 mM Tris-Cl pH 8.0, 150 mM NaCl, 0.1% Na-deoxycholate; 10% SDS-PAGE, silver staining, bands cut out and identified by LC-MS against an untagged control
T1 sequence: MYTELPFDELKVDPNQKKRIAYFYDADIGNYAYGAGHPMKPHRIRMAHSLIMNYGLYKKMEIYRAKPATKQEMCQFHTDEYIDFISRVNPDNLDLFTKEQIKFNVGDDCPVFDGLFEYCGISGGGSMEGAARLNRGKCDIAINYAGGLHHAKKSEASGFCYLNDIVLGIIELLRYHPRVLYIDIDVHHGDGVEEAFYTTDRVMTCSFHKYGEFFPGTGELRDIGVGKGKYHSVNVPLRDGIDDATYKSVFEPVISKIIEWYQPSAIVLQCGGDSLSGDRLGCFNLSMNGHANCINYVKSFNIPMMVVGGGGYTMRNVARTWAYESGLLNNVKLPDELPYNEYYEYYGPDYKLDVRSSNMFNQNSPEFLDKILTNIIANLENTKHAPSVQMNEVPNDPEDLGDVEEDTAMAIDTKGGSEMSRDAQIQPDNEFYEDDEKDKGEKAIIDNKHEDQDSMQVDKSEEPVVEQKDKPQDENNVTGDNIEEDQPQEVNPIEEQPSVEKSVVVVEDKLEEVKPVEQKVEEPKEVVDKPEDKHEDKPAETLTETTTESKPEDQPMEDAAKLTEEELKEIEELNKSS

binding, binds:
Dep1 (Candida albicans (endogenous))
Pho23 (from UniProt A0A1D8PIP3 1-481)
Rxt2 (Candida albicans (endogenous))
Sin3 (from UniProt A0A1D8PCC3 1-1411)
Ume1 (orf19.7185 product) (from UniProt A0A1D8PRH3)
